# Percent effect of library compounds

The chains behind the UniProt entries cited, without tags or fusion partners. Residues count along the entry.
UniProt Q8IDJ8, 1-583: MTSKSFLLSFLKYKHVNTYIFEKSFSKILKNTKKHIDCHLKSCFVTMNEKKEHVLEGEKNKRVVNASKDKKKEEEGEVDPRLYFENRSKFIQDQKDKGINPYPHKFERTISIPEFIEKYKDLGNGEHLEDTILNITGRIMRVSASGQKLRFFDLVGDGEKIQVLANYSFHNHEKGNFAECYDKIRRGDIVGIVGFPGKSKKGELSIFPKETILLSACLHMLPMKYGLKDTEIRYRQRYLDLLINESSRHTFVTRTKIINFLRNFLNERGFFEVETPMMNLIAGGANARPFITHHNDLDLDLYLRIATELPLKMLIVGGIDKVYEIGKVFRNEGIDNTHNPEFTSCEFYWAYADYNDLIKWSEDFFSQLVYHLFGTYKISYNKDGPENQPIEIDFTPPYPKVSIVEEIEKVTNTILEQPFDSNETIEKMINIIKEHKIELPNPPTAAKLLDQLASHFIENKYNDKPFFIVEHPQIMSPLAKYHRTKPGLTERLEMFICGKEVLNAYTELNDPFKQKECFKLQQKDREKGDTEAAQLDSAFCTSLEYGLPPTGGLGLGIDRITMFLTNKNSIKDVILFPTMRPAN
UniProt P9WFT3, whole entry: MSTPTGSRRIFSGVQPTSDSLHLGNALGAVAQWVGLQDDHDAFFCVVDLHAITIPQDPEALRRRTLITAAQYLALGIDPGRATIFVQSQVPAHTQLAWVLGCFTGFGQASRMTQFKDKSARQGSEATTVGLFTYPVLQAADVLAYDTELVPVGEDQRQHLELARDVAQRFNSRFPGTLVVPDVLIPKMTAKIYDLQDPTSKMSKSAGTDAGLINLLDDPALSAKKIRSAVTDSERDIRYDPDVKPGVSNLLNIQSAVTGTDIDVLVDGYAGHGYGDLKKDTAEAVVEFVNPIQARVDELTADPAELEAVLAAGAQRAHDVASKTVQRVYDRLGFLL

From ChEMBL document CHEMBL3988442, “University of Dundee, Small-Polar-MMV Screening Library” (2021).

The filed quantity is “Percent Effect” (%).
The record does not define 0% and 100%; most values in the screen are far below 50% and negative numbers occur (in some assays of this library far below -100).
The compounds are a random part of those screened.

PfKRS1: 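Lysine-tRNA ligase, Plasmodium falciparum 3D7 (UniProt Q8IDJ8). Enzyme assay of the cytosolic lysyl-tRNA synthetase in 384-well plates, read by luminescence. Concentration: 30 µM. Direction is inferred from only a few compounds that gave an IC50; most scored high, so higher reads as stronger inhibition. Of about 69,000 compounds tested this way, about 49 (0.071%) reached 50% or more in at least one test.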
MtTrpRS: 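Tryptophan-tRNA ligase, Mycobacterium tuberculosis (UniProt P9WFT3). Enzyme assay of tryptophanyl-tRNA synthetase; the read-out is not stated. Compounds at 10 µM. Direction is not recorded; retested compounds ran higher, which suggests that high means inhibition. About 65,000 compounds were tested under these conditions; 0.098% (about 64) showed 50% or more at least once.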

CC(C)NC(=O)CNC(=O)C12CCC(=O)N1c1cc(Cl)ccc1S2 (stereo not given) gave PfKRS1: 2.356%; MtTrpRS: -8.42%.
Cn1cnc(CNC(=O)c2ccccc2-n2cc(CN)cn2)c1 gave PfKRS1: 1.894%.
O=C(NCC1CCCO1)c1nc2c(s1)CCCN2C(=O)C1CC1 (stereo not given) gave PfKRS1: 2.547%; MtTrpRS: -5.231%.
Cc1ccc(-c2nc(CN3CCCC(C(=O)N(C)C)C3)cs2)o1 (stereo not given) gave PfKRS1: -2.429%; MtTrpRS: -8.562%.
Cc1ccc(CN2CCn3c(C(=O)N(C)C)cnc3C2)cc1 gave PfKRS1: 1.008%; MtTrpRS: -4.378%.
Cc1ccc(C(=O)Nc2ccc(N3CCC(O)CC3)c(C#N)c2)s1 gave PfKRS1: 3.004%; MtTrpRS: -3.263%.
Cc1ccccc1OC1CCN(CC(=O)Nc2ccn(C)n2)CC1 gave PfKRS1: 0.6011%; MtTrpRS: -4.651%.
Cc1cc(C)n(-c2cncc(NCCNC(=O)C(C)(C)C)n2)n1 gave PfKRS1: 5.376%; MtTrpRS: 4.248%.
COc1ccc(CCC2CCCCN2)cc1 (stereo not given) gave PfKRS1: 7.698%; MtTrpRS: -0.4823%.
Cc1cc(C)n(CCCN(C)c2cc(N(C)C)ncn2)n1 gave PfKRS1: 0.99%; MtTrpRS: 3.92%.
CN(CCCN1CCOCC1)[C@@H]1c2ccccc2C2(CCNCC2)[C@H]1O gave PfKRS1: -2.459%; MtTrpRS: 0.6595%.
Cc1cccc(CN2C(=O)C[C@H]3[C@@H]2CCN3Cc2ccc(F)cc2)n1 gave PfKRS1: 3.44%; MtTrpRS: 4.643%.
O=C(CC1CC1)N1CCC2(COCc3cnc(-c4cccnc4)nc32)C1 (stereo not given) gave PfKRS1: 2.94%.
C[C@]1(O)CN(Cc2cscn2)CC[C@@H]1Oc1cccc(F)c1 gave PfKRS1: 4.366%.
Cc1cc2c(cc1CN1CCCCC1CCn1ccnc1C)OCO2 (stereo not given) gave PfKRS1: 4.671%; MtTrpRS: -4.446%.
CCN(Cc1cc(Br)ccc1F)C(=O)C(C)NC(N)=O (stereo not given) gave PfKRS1: 5.307%; MtTrpRS: -0.4295%.
Cc1cnc(N2CCOC(C(=O)NCc3ccccc3)C2)s1 (stereo not given) gave PfKRS1: 1.342%; MtTrpRS: 7.26%.
CC(=O)N1CCN(C(=O)c2cnn(-c3ccccc3Cl)c2)CC1 gave PfKRS1: 2.095%; MtTrpRS: 2.113%.
CSCCC(NC(N)=O)C(=O)N1CCC(Cc2ccccc2)CC1 (stereo not given) gave PfKRS1: 6.341%; MtTrpRS: -6.502%.
CC(Cn1cccn1)NCCCc1nc(-c2cccs2)no1 (stereo not given) gave PfKRS1: 0.635%; MtTrpRS: -8.78%.
CCN(CC(=O)NC(C)(C)C)Cc1cccc2c1OCCO2 gave PfKRS1: 1.147%; MtTrpRS: -1.232%.
O=c1cccnn1CC1CN(c2ncc(F)cn2)Cc2nccn2C1 (stereo not given) gave PfKRS1: -1.863%; MtTrpRS: -5.94%.
O=C(c1cccc2cn[nH]c12)N1CCCC1c1noc(C2CC2)n1 (stereo not given) gave PfKRS1: 3.332%; MtTrpRS: 2.077%.

3 of the entries, repeated:

Result for O=C(c1cccc2cn[nH]c12)N1CCCC1c1noc(C2CC2)n1 (stereo not given) was PfKRS1: 3.332%; MtTrpRS: 2.077%.
Result for CSCCC(NC(N)=O)C(=O)N1CCC(Cc2ccccc2)CC1 (stereo not given) was PfKRS1: 6.341%; MtTrpRS: -6.502%.
Result for O=c1cccnn1CC1CN(c2ncc(F)cn2)Cc2nccn2C1 (stereo not given) was PfKRS1: -1.863%; MtTrpRS: -5.94%.